Some entries share one result that the patent states for a list of compounds.
These compounds were tested on Plasmodium berghei, GFP ANKA 507 clone 1 strain (assay: Mouse malaria model (c)). Conditions: twice-daily administration at 5 or 10 mg/kg/dose.
Format: in vivo

Row | SMILES | lowered the parasite burden in the mouse malaria model
1 | CNCc1nn(C)c2ccc(-c3ccc(F)cc3OCCc3c(C)nn(C)c3C)cc12 [Example 18] | more than 30%
2 | Cc1nn(C)c(C)c1CCOc1c(F)cccc1-c1ccc2c(c1)c(CN(C)C)nn2C [Example 30] | more than 30%
3 | Cc1nn(C)c(C)c1CCOc1cc(F)ccc1-c1ccc2c(c1)c(CN(C)C)nn2C [Example 17] | more than 30%
